Measured values published in the supplement of paper PMC10849652.
The list shows a part of the results.

Amino acid sequences for entries named in this document (tags omitted). A change or cut given only in a name is not applied to a line headed by its entry.
UniProt Q9NVR5: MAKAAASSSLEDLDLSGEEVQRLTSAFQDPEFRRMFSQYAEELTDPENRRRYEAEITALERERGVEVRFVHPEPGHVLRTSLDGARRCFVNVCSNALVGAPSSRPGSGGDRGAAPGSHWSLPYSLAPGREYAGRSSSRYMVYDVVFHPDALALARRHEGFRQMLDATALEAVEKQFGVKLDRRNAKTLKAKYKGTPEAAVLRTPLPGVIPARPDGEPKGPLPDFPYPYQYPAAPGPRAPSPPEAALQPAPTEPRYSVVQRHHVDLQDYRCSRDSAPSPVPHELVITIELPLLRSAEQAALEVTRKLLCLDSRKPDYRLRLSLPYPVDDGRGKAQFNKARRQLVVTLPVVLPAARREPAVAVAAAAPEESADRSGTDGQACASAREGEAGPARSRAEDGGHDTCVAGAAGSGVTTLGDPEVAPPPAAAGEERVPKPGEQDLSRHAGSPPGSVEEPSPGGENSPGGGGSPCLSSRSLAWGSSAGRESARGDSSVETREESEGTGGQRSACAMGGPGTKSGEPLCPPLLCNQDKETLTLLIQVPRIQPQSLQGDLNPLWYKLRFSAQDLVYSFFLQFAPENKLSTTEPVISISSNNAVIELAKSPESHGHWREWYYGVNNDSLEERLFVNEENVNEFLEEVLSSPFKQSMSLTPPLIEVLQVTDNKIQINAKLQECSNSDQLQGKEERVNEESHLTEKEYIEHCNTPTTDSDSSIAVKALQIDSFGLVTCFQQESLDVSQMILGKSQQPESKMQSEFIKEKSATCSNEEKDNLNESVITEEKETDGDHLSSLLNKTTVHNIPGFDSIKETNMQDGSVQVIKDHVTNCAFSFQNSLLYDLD
UniProt Q99766: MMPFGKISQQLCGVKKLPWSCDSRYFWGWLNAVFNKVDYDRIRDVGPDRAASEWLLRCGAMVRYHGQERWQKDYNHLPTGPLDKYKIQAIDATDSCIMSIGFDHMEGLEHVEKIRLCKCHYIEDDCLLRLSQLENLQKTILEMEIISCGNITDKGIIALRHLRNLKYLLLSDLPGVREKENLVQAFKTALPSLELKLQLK
UniProt Q96LJ7: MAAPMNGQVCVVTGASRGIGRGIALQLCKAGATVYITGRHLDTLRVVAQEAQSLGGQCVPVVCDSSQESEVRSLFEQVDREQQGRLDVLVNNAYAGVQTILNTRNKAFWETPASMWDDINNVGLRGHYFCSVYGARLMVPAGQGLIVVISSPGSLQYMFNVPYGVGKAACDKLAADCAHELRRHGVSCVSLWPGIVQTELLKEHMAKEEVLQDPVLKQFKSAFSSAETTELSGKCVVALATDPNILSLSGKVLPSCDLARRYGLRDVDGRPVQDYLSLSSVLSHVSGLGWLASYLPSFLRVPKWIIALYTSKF
UniProt Q9NXW2: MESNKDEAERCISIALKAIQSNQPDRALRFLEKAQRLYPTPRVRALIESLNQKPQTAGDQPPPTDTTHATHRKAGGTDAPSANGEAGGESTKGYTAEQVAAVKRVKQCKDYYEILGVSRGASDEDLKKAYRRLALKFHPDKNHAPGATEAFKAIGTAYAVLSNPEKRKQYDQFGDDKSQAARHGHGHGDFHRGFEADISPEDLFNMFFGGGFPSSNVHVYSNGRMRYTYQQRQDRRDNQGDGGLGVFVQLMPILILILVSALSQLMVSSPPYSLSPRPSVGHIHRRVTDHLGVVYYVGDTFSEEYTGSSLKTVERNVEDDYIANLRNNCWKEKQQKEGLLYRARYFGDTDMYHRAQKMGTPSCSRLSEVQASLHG
UniProt Q99704: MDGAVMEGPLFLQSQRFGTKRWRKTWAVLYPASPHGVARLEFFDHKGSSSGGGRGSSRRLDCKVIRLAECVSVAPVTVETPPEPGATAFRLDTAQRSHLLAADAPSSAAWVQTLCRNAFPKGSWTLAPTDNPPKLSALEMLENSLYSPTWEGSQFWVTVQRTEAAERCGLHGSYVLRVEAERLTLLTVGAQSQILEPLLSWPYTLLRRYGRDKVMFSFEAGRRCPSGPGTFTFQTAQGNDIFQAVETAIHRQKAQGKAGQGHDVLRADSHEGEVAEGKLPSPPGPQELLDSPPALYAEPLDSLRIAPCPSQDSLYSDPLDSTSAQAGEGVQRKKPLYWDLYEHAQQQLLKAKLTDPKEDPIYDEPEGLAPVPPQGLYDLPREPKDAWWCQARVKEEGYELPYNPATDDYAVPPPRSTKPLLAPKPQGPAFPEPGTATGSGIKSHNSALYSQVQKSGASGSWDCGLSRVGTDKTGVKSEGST
UniProt Q96GE9: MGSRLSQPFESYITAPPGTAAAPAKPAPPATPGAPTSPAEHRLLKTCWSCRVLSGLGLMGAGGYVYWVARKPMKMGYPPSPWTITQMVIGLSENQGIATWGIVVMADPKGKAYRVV
UniProt Q7Z478: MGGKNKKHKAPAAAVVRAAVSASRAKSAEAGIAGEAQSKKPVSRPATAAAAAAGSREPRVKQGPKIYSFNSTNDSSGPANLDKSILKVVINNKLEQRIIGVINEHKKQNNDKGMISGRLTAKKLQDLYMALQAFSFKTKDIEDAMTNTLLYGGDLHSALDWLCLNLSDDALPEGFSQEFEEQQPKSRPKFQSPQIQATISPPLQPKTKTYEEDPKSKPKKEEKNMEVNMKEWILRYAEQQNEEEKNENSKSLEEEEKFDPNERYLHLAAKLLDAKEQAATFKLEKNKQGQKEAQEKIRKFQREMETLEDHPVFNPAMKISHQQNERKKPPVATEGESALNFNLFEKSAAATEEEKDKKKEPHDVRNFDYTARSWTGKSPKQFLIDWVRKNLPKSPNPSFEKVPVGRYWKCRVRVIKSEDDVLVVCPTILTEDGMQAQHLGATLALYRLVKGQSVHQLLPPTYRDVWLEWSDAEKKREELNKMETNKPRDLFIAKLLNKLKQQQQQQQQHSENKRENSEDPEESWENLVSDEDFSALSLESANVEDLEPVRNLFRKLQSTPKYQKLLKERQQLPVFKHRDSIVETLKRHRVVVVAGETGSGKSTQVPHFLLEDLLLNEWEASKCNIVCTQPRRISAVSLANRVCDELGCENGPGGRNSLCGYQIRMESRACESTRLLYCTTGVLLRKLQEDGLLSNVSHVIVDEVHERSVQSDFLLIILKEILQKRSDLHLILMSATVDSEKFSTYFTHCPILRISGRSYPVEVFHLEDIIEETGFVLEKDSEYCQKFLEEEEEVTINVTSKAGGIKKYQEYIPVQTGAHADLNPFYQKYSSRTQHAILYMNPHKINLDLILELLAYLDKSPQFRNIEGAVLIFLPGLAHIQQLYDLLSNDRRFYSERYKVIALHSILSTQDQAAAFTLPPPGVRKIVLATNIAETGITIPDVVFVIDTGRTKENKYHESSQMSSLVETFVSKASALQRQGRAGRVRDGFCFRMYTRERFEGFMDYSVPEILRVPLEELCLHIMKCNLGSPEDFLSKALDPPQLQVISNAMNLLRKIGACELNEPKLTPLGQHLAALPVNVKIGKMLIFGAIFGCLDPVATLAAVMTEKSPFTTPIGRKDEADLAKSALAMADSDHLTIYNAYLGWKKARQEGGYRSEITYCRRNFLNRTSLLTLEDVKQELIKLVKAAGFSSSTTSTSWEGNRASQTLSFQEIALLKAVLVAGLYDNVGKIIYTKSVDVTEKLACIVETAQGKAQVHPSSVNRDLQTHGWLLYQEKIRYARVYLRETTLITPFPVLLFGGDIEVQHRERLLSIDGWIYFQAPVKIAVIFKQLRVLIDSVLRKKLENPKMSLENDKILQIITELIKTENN
UniProt O43143: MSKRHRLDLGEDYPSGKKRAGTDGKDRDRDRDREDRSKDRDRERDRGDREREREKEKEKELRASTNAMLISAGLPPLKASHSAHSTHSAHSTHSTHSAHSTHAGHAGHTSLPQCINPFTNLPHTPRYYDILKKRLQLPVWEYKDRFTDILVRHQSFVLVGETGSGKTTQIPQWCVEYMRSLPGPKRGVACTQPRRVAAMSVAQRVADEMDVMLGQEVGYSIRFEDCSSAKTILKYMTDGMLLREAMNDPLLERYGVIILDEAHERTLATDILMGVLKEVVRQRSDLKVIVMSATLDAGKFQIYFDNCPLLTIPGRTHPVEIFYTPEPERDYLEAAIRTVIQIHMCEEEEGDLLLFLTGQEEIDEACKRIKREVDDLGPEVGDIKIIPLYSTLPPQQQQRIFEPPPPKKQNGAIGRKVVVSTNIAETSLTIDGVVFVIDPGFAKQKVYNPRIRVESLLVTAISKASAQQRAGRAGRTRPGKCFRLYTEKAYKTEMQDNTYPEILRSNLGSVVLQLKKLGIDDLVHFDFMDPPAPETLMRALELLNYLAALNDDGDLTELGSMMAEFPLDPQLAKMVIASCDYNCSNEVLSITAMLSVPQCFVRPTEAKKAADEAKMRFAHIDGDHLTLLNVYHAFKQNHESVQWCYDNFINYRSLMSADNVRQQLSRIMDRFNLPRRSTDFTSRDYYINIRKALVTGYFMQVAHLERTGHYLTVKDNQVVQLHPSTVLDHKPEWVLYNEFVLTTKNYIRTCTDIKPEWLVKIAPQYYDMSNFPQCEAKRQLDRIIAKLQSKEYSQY
UniProt Q92620: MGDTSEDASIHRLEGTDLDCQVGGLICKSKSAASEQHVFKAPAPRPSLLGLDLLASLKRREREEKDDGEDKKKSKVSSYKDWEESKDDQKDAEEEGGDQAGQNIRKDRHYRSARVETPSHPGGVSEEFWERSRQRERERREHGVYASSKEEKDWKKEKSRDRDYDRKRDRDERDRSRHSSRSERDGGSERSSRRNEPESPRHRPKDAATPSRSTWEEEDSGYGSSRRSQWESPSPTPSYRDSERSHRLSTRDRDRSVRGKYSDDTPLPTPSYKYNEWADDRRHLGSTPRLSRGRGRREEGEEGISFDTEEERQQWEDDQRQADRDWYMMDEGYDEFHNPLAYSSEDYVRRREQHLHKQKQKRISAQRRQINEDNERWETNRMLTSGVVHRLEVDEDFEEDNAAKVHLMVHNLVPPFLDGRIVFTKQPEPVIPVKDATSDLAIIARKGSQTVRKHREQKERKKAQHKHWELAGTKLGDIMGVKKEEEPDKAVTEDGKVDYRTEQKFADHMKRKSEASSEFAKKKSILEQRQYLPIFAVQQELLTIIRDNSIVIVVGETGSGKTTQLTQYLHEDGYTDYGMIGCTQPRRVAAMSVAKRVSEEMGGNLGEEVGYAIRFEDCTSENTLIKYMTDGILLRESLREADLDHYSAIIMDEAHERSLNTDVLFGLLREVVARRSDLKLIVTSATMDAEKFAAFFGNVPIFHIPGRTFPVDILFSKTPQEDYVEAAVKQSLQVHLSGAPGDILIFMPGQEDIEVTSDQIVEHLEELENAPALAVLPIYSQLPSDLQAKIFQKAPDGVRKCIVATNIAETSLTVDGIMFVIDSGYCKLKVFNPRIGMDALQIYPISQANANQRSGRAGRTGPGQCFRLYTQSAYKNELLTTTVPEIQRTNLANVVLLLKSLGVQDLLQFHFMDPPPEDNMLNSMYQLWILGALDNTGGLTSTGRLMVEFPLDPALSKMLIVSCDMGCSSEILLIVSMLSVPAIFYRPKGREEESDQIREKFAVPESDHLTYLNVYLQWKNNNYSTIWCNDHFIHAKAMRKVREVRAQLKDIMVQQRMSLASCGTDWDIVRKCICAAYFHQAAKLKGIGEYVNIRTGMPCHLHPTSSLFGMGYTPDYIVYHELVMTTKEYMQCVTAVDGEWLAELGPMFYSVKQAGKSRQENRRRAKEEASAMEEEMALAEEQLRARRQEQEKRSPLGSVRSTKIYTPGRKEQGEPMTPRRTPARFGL
UniProt Q8IXB1: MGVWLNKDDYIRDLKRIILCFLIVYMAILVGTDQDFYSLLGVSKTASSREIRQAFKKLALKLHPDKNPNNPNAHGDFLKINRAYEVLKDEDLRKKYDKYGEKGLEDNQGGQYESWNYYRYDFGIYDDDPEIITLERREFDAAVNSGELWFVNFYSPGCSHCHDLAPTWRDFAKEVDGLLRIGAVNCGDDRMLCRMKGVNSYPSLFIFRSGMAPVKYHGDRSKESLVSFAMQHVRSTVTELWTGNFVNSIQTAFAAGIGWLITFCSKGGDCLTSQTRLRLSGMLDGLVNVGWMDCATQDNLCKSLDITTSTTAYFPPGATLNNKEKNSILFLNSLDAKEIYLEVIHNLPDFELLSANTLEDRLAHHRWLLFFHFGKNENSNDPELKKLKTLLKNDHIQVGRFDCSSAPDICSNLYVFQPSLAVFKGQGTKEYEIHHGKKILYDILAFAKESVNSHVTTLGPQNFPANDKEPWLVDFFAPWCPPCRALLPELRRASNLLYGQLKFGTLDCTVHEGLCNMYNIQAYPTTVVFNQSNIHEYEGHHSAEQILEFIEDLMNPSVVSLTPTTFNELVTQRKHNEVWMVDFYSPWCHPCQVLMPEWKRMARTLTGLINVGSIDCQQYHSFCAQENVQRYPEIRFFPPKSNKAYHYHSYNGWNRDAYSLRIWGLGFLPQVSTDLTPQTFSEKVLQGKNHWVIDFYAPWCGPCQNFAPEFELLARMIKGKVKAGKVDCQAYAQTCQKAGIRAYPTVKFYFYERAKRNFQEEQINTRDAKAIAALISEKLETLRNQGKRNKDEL

What was measured:
Assay in all cases: log2 fold change, soluble protein after heating vs DMSO (PISA); higher = thermal stabilisation; K562 lysate, 10 uM; active = over 0.2 and 3.5 SD of the protein, either way, in both replicates (recomputed)
[1] = compound: NCC(=O)Nc1ccc(-n2nc(C(F)(F)F)cc2-c2ccc3c(ccc4ccccc43)c2)cc1
Summary of the method: (§1)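 Dounce homogenisation of K562 pellets in PBS pH 7.4 with 1 mM MgCl2 produced a crude extract, used at 1 mg/mL protein. Exposure to 10 μM compound lasted 30 min, and aliquots were then heated for 3 min across 48°C-58°C, pooled and brought to 0.5% NP-40 at 4°C. The supernatant after 21,000xg for 90 min was quantified by TMTpro 16plex LC-MS/MS with channel sums equalised. Duplicate values are given as log-two fold change in thermal stability relative to solvent controls.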

vorinostat = compound: O=C(CCCCCCC(=O)Nc1ccccc1)NO [vorinostat]
Summary of the method: as §1

silmitasertib = compound: O=C(O)c1ccc2c(c1)nc(Nc1cccc(Cl)c1)c1ccncc12 [silmitasertib]
Summary of the method: as §1

[2] = compound: O=C1NC(=O)C(c2cnc3ccccn23)=C1c1cn2c3c(cc(F)cc13)CN(C(=O)N1CCCCC1)CC2
Summary of the method: as §1

entospletinib = compound: c1cn2cc(-c3ccc4cn[nH]c4c3)nc(Nc3ccc(N4CCOCC4)cc3)c2n1 [entospletinib]
Summary of the method: as §1

Measured: log2 fold change

DIS3L2 (UniProt Q8IYB7)
inactive: [1] -0.014 | vorinostat -0.172 | silmitasertib 0.108 | [2] -0.079 | entospletinib 0.01

DNAJA3 (UniProt Q96EY1)
inactive: [1] 0.01 | vorinostat 0.049 | silmitasertib -0.002 | [2] 0.048 | entospletinib -0.014

DHX37 (UniProt Q8IY37)
inactive: [1] 0.067 | vorinostat -0.121 | silmitasertib 0.063 | [2] -0.002 | entospletinib 0.063

DOT1L isoform 1 (UniProt Q8TEK3)
inactive: [1] 0.008 | vorinostat -0.06 | silmitasertib -0.003 | [2] -0.084 | entospletinib -0.011

DLD (UniProt P09622)
active: vorinostat -1.96
inactive: [1] -0.003 | silmitasertib 0.004 | [2] 0.008 | entospletinib 0.01

4 successive entries from above, quoted:
DIS3L2 (UniProt Q8IYB7)
inactive: [1] -0.014 | vorinostat -0.172 | silmitasertib 0.108 | [2] -0.079 | entospletinib 0.01

DNAJA3 (UniProt Q96EY1)
inactive: [1] 0.01 | vorinostat 0.049 | silmitasertib -0.002 | [2] 0.048 | entospletinib -0.014

DHX37 (UniProt Q8IY37)
inactive: [1] 0.067 | vorinostat -0.121 | silmitasertib 0.063 | [2] -0.002 | entospletinib 0.063

DOT1L isoform 1 (UniProt Q8TEK3)
inactive: [1] 0.008 | vorinostat -0.06 | silmitasertib -0.003 | [2] -0.084 | entospletinib -0.011

(further entries)

DNAAF2 (UniProt Q9NVR5)
inactive: [1] 0.071 | vorinostat 0.005 | silmitasertib 0.045 | [2] -0.005 | entospletinib -0.029

DNPH1 (UniProt H0Y8X4)
inactive: [1] -0.029 | vorinostat 0.017 | silmitasertib 0.004 | [2] -0.004 | entospletinib 0.003

DOCK7 (UniProt Q96N67)
active: vorinostat -0.348
inactive: [1] 0.032 | silmitasertib 0.053 | [2] -0.019 | entospletinib -0.039

DNAH5 (UniProt Q8TE73)
inactive: [1] 0.008 | vorinostat 0.113 | silmitasertib -0.179

DNAJC8 (UniProt O75937)
inactive: [1] -0.011 | vorinostat 0.119 | silmitasertib -0.013 | [2] -0.036 | entospletinib 0.02

DNAJA1 (UniProt P31689)
inactive: [1] 0.021 | vorinostat -0.013 | silmitasertib 0.017 | [2] -0.004 | entospletinib 0.011

DMAC2L (UniProt Q99766)
inactive: [1] -0.023 | vorinostat -0.174 | silmitasertib 0.037 | [2] -0.038 | entospletinib 0.022

DHRS1 (UniProt Q96LJ7)
active: vorinostat -0.561
inactive: [1] -0.154 | silmitasertib -0.021 | [2] -0.055 | entospletinib -0.138

DMD (UniProt P11532)
inactive: [1] -0.025 | vorinostat 0.014 | silmitasertib -0.017 | [2] 0.002 | entospletinib -0.003

DNAJC9 (UniProt Q8WXX5)
inactive: [1] -0.044 | vorinostat 0.063 | silmitasertib -0.018 | [2] -0.012 | entospletinib 0.015

DNAJC5 (UniProt Q9H3Z4)
inactive: [1] 0.02 | vorinostat 0.101 | silmitasertib -0.071 | [2] -0.03 | entospletinib 0.019

DIP2B (UniProt Q9P265)
inactive: [1] 0.011 | vorinostat 0.054 | silmitasertib -0.014 | [2] -0.006 | entospletinib 0.001

DNAJC7 (UniProt Q99615)
inactive: [1] -0.069 | vorinostat -0.259 | silmitasertib 0.049 | [2] -0.073 | entospletinib 0.048

DNAJC24 (UniProt Q6P3W2)
inactive: [1] -0.159 | vorinostat 0.053 | silmitasertib -0.017 | [2] -0.014 | entospletinib -0.046

DIEXF (UniProt Q68CQ4)
inactive: [1] -0.035 | vorinostat -0.28 | silmitasertib 0.045 | [2] 0.053 | entospletinib -0.006

DOCK11 (UniProt Q5JSL3)
inactive: [1] -0.001 | vorinostat -0.148 | silmitasertib 0.036 | [2] 0.006 | entospletinib -0.001

DNAJB12 (UniProt Q9NXW2)
inactive: [1] 0.053 | vorinostat -0.112 | silmitasertib -0.117 | [2] 0.047 | entospletinib 0.008

DNAH9 (UniProt Q9NYC9)
inactive: [1] 0.024 | vorinostat 0.052 | silmitasertib -0.053 | [2] 0.035 | entospletinib 0.077

DOK1 (UniProt Q99704)
inactive: [1] -0.036 | silmitasertib -0.043 | [2] -0.012 | entospletinib -0.011
active: vorinostat -0.297

DMAC1 (UniProt Q96GE9)
inactive: [1] -0.031

DNAJC2 (UniProt Q99543)
inactive: [1] -0.057 | vorinostat -0.225 | silmitasertib 0.034 | [2] -0.041 | entospletinib 0.003

DHRS7 (UniProt Q9Y394)
inactive: [1] 0.027 | vorinostat 0.083 | silmitasertib 0.015 | [2] -0.018 | entospletinib 0.025

DNAJB11 (UniProt Q9UBS4)
inactive: [1] 0.046 | vorinostat 0.075 | silmitasertib -0.016 | [2] -0.004 | entospletinib 0.002

DOHH (UniProt Q9BU89)
inactive: [1] -0.103 | vorinostat 0.004 | silmitasertib 0.024 | [2] 0.001 | entospletinib -0.031

DHRS7B (UniProt Q6IAN0)
inactive: [1] -0.047 | vorinostat -0.031 | silmitasertib -0.005 | [2] -0.041 | entospletinib 0.023

DOCK8 (UniProt Q8NF50)
inactive: [1] -0.015 | silmitasertib 0.06 | [2] 0.022 | entospletinib -0.052
active: vorinostat -0.489

DHX32 (UniProt Q7L7V1)
inactive: [1] -0.044 | vorinostat -0.351 | silmitasertib 0.028 | [2] 0.097 | entospletinib -0.002

DIS3 (UniProt Q9Y2L1)
inactive: [1] 0.008 | vorinostat -0.07 | silmitasertib -0.014 | [2] 0.008 | entospletinib 0.072

DMTN (UniProt Q08495)
inactive: [1] 0.03 | vorinostat 0.063 | silmitasertib -0.042 | [2] -0.018 | entospletinib -0.018

DPCD (UniProt Q9BVM2)
inactive: [1] -0.103 | vorinostat -0.081 | silmitasertib -0.081 | [2] -0.085 | entospletinib -0.015

DOCK2 (UniProt Q92608)
inactive: [1] 0.032 | vorinostat -0.11 | silmitasertib 0.208 | [2] -0.037 | entospletinib -0.037

DHRS4L1 (UniProt P0CG22)
inactive: [1] 0.208 | vorinostat -0.091 | silmitasertib 0.222 | [2] 0.027 | entospletinib -0.033

DLG1 isoform 2 (UniProt Q12959)
inactive: [1] -0.005 | vorinostat 0.006 | silmitasertib 0.017 | [2] 0.014 | entospletinib -0.026

DHX8 (UniProt Q14562)
inactive: [1] -0.06 | vorinostat 0.045 | silmitasertib -0.004 | [2] -0.042 | entospletinib -0.006

DIDO1 (UniProt Q9BTC0)
inactive: [1] -0.006 | vorinostat -0.105 | silmitasertib -0.045 | [2] 0.012 | entospletinib -0.012

DHRS2 (UniProt Q13268)
inactive: [1] -0.014 | vorinostat 0.079 | silmitasertib 0.002 | [2] 0.004 | entospletinib 0.025

DHX35 (UniProt Q9H5Z1)
inactive: [1] 0.058 | vorinostat -0.313 | silmitasertib 0.059 | [2] 0.174 | entospletinib -0.026

DHX29 (UniProt Q7Z478)
inactive: [1] -0.017 | vorinostat -0.034 | silmitasertib -0.027 | [2] -0.034 | entospletinib -0.026

DNMBP (UniProt Q6XZF7)
inactive: [1] 0.062 | vorinostat 0.021 | silmitasertib -0.014 | [2] 0.087 | entospletinib -0.052

DMTN isoform 2 (UniProt Q08495)
inactive: [1] -0.06 | vorinostat 0.111 | silmitasertib 0.003 | [2] 0.042 | entospletinib -0.052

DMAP1 (UniProt Q9NPF5)
inactive: [1] -0.042 | vorinostat -0.192 | silmitasertib 0.036 | [2] 0 | entospletinib 0.03

DHX15 (UniProt O43143)
inactive: [1] -0.006 | vorinostat 0.052 | silmitasertib 0.004 | [2] 0.014 | entospletinib 0.006

DHX38 (UniProt Q92620)
inactive: [1] -0.032 | vorinostat 0.011 | silmitasertib 0.003 | [2] -0.005 | entospletinib 0.007

DNAJC10 (UniProt Q8IXB1)
inactive: [1] 0.048 | vorinostat 0.081 | silmitasertib -0.033 | [2] -0.027 | entospletinib -0.01

DIAPH3 (UniProt Q9NSV4)
active: vorinostat -0.584
inactive: [1] -0.047 | silmitasertib 0.067 | [2] -0.006 | entospletinib -0.017

DNAJB4 (UniProt Q9UDY4)
inactive: [1] -0.02 | vorinostat -0.042 | silmitasertib -0.002 | [2] -0.071 | entospletinib -0.032

DNAJB14 (UniProt Q8TBM8)
inactive: [1] -0.017 | vorinostat 0.039 | silmitasertib -0.015 | [2] 0.048 | entospletinib 0.035

DHDDS isoform 2 (UniProt Q86SQ9)
inactive: [1] -0.004 | vorinostat -0.026 | silmitasertib 0.027 | [2] 0.105 | entospletinib 0.005

DNAJC12 (UniProt Q9UKB3)
inactive: [1] -0.005 | vorinostat 0.061 | silmitasertib -0.024 | [2] -0.114 | entospletinib 0
